Assay results taken from PubChem BioAssay AID588590 (National Center for Advancing Translational Sciences (NCATS), 2011).
Hit rate of the full screen: of about 390,000 compounds, about 4,000 (1%) were called active. Inconclusive results, whose numbers are uncertain, are shown with a selection of clear calls. Calls follow the shape of the dose curve; as a rule, active = well fitted inhibition curve with a large enough effect; inconclusive = small, poorly fitted or top-dose-only effect, or another doubt; inactive = no such curve, though single readings can be large or run the other way. Potencies beside an inconclusive call are fits to weak or partial responses and may not hold up.

Sequences of proteins named here, by UniProt entry; tags and fusion partners are left off. A change or cut given only in a name is not applied to a line headed by its entry.
UniProt Q9UNA4: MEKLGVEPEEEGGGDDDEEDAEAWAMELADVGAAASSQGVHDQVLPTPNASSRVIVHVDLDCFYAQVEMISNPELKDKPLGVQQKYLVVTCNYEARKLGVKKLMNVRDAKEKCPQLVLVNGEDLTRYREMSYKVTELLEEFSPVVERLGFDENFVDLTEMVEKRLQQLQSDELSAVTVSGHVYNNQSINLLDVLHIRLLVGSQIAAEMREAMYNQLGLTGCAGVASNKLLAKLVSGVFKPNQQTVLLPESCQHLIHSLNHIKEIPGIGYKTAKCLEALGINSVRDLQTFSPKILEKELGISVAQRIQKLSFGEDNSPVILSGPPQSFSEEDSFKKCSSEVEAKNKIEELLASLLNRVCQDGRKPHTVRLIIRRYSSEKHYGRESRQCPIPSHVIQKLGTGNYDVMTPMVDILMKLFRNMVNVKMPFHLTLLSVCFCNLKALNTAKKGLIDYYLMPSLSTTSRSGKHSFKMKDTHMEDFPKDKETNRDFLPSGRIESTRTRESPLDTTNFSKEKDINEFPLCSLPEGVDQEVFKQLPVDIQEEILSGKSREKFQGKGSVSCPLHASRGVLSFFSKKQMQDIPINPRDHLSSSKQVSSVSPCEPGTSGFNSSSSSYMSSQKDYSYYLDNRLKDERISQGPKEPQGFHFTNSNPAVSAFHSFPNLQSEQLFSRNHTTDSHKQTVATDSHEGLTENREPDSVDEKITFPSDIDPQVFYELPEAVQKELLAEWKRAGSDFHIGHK

biological target: DNA polymerase iota (Homo sapiens) (UniProt Q9UNA4); test: qHTS for Inhibitors of Polymerase Iota; conditions: Pol iota fluorescent replication assay, 10 min; series mostly up to 115 µM
Procedure, shortened: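 Fluorescent replication assay read twice, at 0 min and 10 min after adding 50 nM (final) substrate. Enzyme (10 nM) and compounds were first incubated 15 min at room temperature; enzyme-free buffer wells were negative controls.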
Potency is read from the fitted curve at half-maximal effect.

Potency, inactive:
CCOc1ccc(CNC(=O)c2ccc3c(c2)sc2nc(-c4ccc(OC)cc4)cn23)cc1
CCS(=O)(=O)N1CCc2cc(C(=O)N3CCN(c4ccccc4)CC3)ccc21
CCC(CC)C(=O)c1c[nH]c(C(=O)NCc2cccnc2)c1
N#Cc1c(NCCN)nc(-c2ccco2)c2c1CCCC2
COc1ccc(-c2cc(C(=O)OCC(=O)N3CCOCC3)c3ccccc3n2)cc1
Cc1cccc2c(N=O)c(O)[nH]c12

Potency, active:
O=C(Cc1cccs1)Nc1nnc(SCc2cccc3ccccc23)s1 22.4 µM

Potency, inconclusive:
COc1ccc(S(=O)(=O)N(C)CC(=O)NCc2ccco2)cc1OC 25.1 µM [inhibitor, partial curve, poor fit]
CS(=O)(=O)Nc1cccc(-c2cn3c(n2)SCC3)c1 25.1 µM [inhibitor, full curve, poor fit]
COCCNCCCOc1ccc(Cl)cc1Br 35.5 µM [inhibitor, full curve, poor fit]
COc1cc(/C=C2/C(=N)N3N=C(C)SC3=NC2=O)ccc1OS(=O)(=O)c1ccc(C)cc1 31.6 µM [inhibitor, single point]
CCCCNC(=O)[C@@H]1CSC2c3ccc(OC)c(OC)c3C(=O)N21 (stereo not given in full) 11.2 µM [inhibitor, partial curve, poor fit]
CC(=O)c1cccc(NC(=S)NC(=O)CC(C)C)c1 79.4 µM [inhibitor, partial curve, poor fit]
CCc1ccccc1NC(=S)NCc1ccc2c(c1)OCO2 63.1 µM [inhibitor, partial curve, poor fit]
NC(=O)c1ccsc1NC(=O)COC(=O)Cc1c[nH]c2ccccc12 28.2 µM [inhibitor, single point]
Cc1nn(Cc2ccc(C(=O)Nc3ccc(C(=O)OC(C)C)cc3)o2)c(C)c1Cl 25.1 µM [inhibitor, full curve]
COc1ccccc1NC(=O)Cc1noc(CSc2cccc[n+]2[O-])n1 79.4 µM [inhibitor, partial curve, poor fit]
COc1ccc(C2=CC(c3cc(OC)c(OC)c(OC)c3)NC(=S)N2)cc1 (stereo not given) 4.47 µM [inhibitor, single point]
O=C1CCCC1C(=O)Nc1ccc2ccccc2c1 (stereo not given) 100 µM [inhibitor, single point]
CN(C)/N=C/C=C1\CCC/C(=C/c2cccs2)C1=O 2.82 µM [inhibitor, full curve, poor fit]

Arranged by molecular weight (smallest number first): 3 of the compounds above
Potency, inconclusive:
O=C1CCCC1C(=O)Nc1ccc2ccccc2c1 (stereo not given) 100 µM [inhibitor, single point]
NC(=O)c1ccsc1NC(=O)COC(=O)Cc1c[nH]c2ccccc12 28.2 µM [inhibitor, single point]
COc1cc(/C=C2/C(=N)N3N=C(C)SC3=NC2=O)ccc1OS(=O)(=O)c1ccc(C)cc1 31.6 µM [inhibitor, single point]
